Reference: PubChem BioAssay AID1053208 (Peter MacCallum Cancer Centre, 2014)
Here is an unselected part of about 17,000 reagents. 788 of all reagents (4.7%) were called active. 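Calls rest on z-score classes alone; an extra cut-off of viability at most 70% of control was not applied to them.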 Unmarked entries are inactive. Further read-outs or replicates are left out here. Reagent sequences are not shown.

Test: 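Find knock-downs that sensitise mouse osteosarcoma cells to doxorubicin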 (primary screen)
Cell system: mouse osteosarcoma cells, early-passage culture from an engineered mouse model of fibroblastic bone tumour
Reagents: siRNA pool against mouse genes, 40 nM
Time to read-out: about 120 h (48 h before drug, then 72 h with drug)
Challenge: doxorubicin 100 nM for 72 h, roughly 30-40% inhibitory dose
Measured: 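Viability read as ATP luminescence after 72 h of 100 nM doxorubicin or none, duplicate wells averaged, scaled to non-targeting siRNA, then expressed as robust z-scores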
Scale: viability z-score with doxorubicin: higher = more viable cells under doxorubicin; viability z-score without drug: higher = more viable cells with knock-down alone
Call rule: 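Called active if knock-down leaves viability unchanged without drug (z within -2 to 2) but lowers it with doxorubicin (z at or under -2)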

Rpl11 (ribosomal protein L11): combined z-score class = low cell count with and without drug; viability z-score with doxorubicin = -4.38; viability z-score without drug = -3.88
Dcun1d4 (defective in cullin neddylation 1 domain containing 4): combined z-score class = no change with or without drug; viability z-score with doxorubicin = 0; viability z-score without drug = 1.18
Thsd4 (thrombospondin, type I, domain containing 4): combined z-score class = no change with or without drug; viability z-score with doxorubicin = 1.12; viability z-score without drug = 0.51
Deptor (DEP domain containing MTOR-interacting protein): combined z-score class = high cell count without drug only; viability z-score with doxorubicin = 0; viability z-score without drug = 2.7
Speg (SPEG complex locus): combined z-score class = no change with or without drug; viability z-score with doxorubicin = 0.22; viability z-score without drug = -0.17
Or1e23 (olfactory receptor family 1 subfamily E member 23): combined z-score class = no change with or without drug; viability z-score with doxorubicin = 0.22; viability z-score without drug = -0.51
E330037G11Rik (RIKEN cDNA E330037G11 gene): combined z-score class = no change with or without drug; viability z-score with doxorubicin = -0.45; viability z-score without drug = 0.17
Lst1 (leukocyte specific transcript 1): combined z-score class = no change with or without drug; viability z-score with doxorubicin = -1.35; viability z-score without drug = -1.18
Mapk6 (mitogen-activated protein kinase 6): combined z-score class = no change with or without drug; viability z-score with doxorubicin = 1.69; viability z-score without drug = 0.51
Wbp2 (WW domain binding protein 2): combined z-score class = no change with or without drug; viability z-score with doxorubicin = -1.12; viability z-score without drug = 0.17
Phkg2 (phosphorylase kinase, gamma 2 (testis)): combined z-score class = no change with or without drug; viability z-score with doxorubicin = 0; viability z-score without drug = 0.51
Sult1a1 (sulfotransferase family 1A, phenol-preferring, member 1): combined z-score class = no change with or without drug; viability z-score with doxorubicin = 1.35; viability z-score without drug = 1.01
Klhl28 (kelch-like 28): combined z-score class = no change with or without drug; viability z-score with doxorubicin = 0.56; viability z-score without drug = 1.18
Cdc27 (cell division cycle 27): combined z-score class = low cell count with doxorubicin only (active); viability z-score with doxorubicin = -2.7; viability z-score without drug = -1.18
Sncb (synuclein, beta): combined z-score class = no change with or without drug; viability z-score with doxorubicin = 1.57; viability z-score without drug = 1.85
Hgs (HGF-regulated tyrosine kinase substrate): combined z-score class = no change with or without drug; viability z-score with doxorubicin = 0.79; viability z-score without drug = 1.52
Prkab1 (protein kinase, AMP-activated, beta 1 non-catalytic subunit): combined z-score class = no change with or without drug; viability z-score with doxorubicin = 0.45; viability z-score without drug = 0.17
Psmd2 (proteasome (prosome, macropain) 26S subunit, non-ATPase, 2): combined z-score class = no change with or without drug; viability z-score with doxorubicin = -0.22; viability z-score without drug = -0.17
Yipf3 (Yip1 domain family, member 3): combined z-score class = high cell count without drug only; viability z-score with doxorubicin = 0.67; viability z-score without drug = 2.02
Heatr1 (HEAT repeat containing 1): combined z-score class = no change with or without drug; viability z-score with doxorubicin = 0.45; viability z-score without drug = -1.18
Dis3: combined z-score class = no change with or without drug; viability z-score with doxorubicin = 0.22; viability z-score without drug = -0.17
Bcar1 (breast cancer anti-estrogen resistance 1): combined z-score class = low cell count without drug only; viability z-score with doxorubicin = -1.35; viability z-score without drug = -2.19
Pdlim1 (PDZ and LIM domain 1 (elfin)): combined z-score class = no change with or without drug; viability z-score with doxorubicin = 0.9; viability z-score without drug = 1.18
Afap1 (actin filament associated protein 1): combined z-score class = no change with or without drug; viability z-score with doxorubicin = 0.34; viability z-score without drug = 0.51
Tor4a (torsin family 4, member A): combined z-score class = no change with or without drug; viability z-score with doxorubicin = 0.9; viability z-score without drug = 0.84
Sorcs1 (sortilin-related VPS10 domain containing receptor 1): combined z-score class = low cell count with and without drug; viability z-score with doxorubicin = -2.59; viability z-score without drug = -2.87
Lonp2 (lon peptidase 2, peroxisomal): combined z-score class = low cell count with doxorubicin only (active); viability z-score with doxorubicin = -4.72; viability z-score without drug = -0.84
Bpifb6 (BPI fold containing family B, member 6): combined z-score class = no change with or without drug; viability z-score with doxorubicin = -0.45; viability z-score without drug = -1.69

Entries above whose gene name begins with D or d (3):
Dcun1d4 (defective in cullin neddylation 1 domain containing 4): combined z-score class = no change with or without drug; viability z-score with doxorubicin = 0; viability z-score without drug = 1.18
Deptor (DEP domain containing MTOR-interacting protein): combined z-score class = high cell count without drug only; viability z-score with doxorubicin = 0; viability z-score without drug = 2.7
Dis3: combined z-score class = no change with or without drug; viability z-score with doxorubicin = 0.22; viability z-score without drug = -0.17
